Like-named read-outs stand apart in the source and are kept apart here.
System: ILM model substrate (silk granules)
Conditions: for λmax Reference (588 nm) / λmax Reference (632-635 nm) / λmax Reference (779 nm): without model substrate; for λmax Reference (632-635 nm): 632 nm (7a), 634 nm (7b, 7d), 635 nm (7c); for λmax Reference (585 nm): dye solution without model substrate

| SMILES | λmax Reference (588 nm) (0.005 mg/mL in PBS pH 7.4) | λmax Reference (632-635 nm) (0.005 mg/mL in PBS pH 7.4) | λmax Reference (588 nm) (0.01 mg/mL in PBS pH 7.4) | λmax Reference (632-635 nm) (0.01 mg/mL in PBS pH 7.4) | λmax Reference (588 nm) (0.02 mg/mL in PBS pH 7.4) | λmax Reference (632-635 nm) (0.02 mg/mL in PBS pH 7.4) | λmax Reference (588 nm) (0.04 mg/mL in PBS pH 7.4) | λmax Reference (632-635 nm) (0.04 mg/mL in PBS pH 7.4) | λmax Reference (588 nm) (0.08 mg/mL in PBS pH 7.4) | λmax Reference (632-635 nm) (0.08 mg/mL in PBS pH 7.4) | λmax Reference (588 nm) (0.16 mg/mL in PBS pH 7.4) | λmax Reference (632-635 nm) (0.16 mg/mL in PBS pH 7.4) | further results |
| --- | --- | --- | --- | --- | --- | --- | --- | --- | --- | --- | --- | --- | --- |
| CCCC[N+](C)(C)CCCNc1ccc(NCCC[N+](C)(C)CCCC)c2c1C(=O)c1ccccc1C2=O [7a, N,N′=(((9,10-dioxo-9,10-dihydroanthracene-1,4-diyl)bis(azanediyl))bis(propane-3,1-diy1))bis(N,N-dimethylbutan-1-aminium) bromide] | 0.0932 | 0.1159 | 0.2000 | 0.2448 | 0.3868 | 0.4640 | 0.7611 | 0.8862 | 1.500 | 1.6571 | 2.8594 | 2.9961 | – |
| CCCCCCCC[N+](C)(C)CCCNc1ccc(NCCC[N+](C)(C)CCCCCCCC)c2c1C(=O)c1ccccc1C2=O [7b, N,N′-(((9,10-dioxo-9,10-dihydroanthracene-1,4-diyl)bis(azanediyl))bis(propane-3,1-diyl))bis(N,N-dimethyloctan-1-aminium) bromide] | 0.0733 | 0.0930 | 0.1508 | 0.1890 | 0.3142 | 0.3881 | 0.6307 | 0.7606 | 1.2728 | 1.4791 | 2.4402 | 2.6985 | – |
| CCCCCCCCCC[N+](C)(C)CCCNc1ccc(NCCC[N+](C)(C)CCCCCCCCCC)c2c1C(=O)c1ccccc1C2=O [7c, N,N′=(((9,10-dioxo-9,10-dihydroanthracene-1,4-diyl)bis(azanediyl))bis(propane-3,1-diyl))bis(N,N-dimethyldecan-1-aminium) Bromide] | 0.0503 | 0.0633 | 0.124 | 0.1476 | 0.2708 | 0.2786 | 0.5298 | 0.5068 | 1.0636 | 0.9575 | 2.2754 | 1.9492 | – |
| CCCCCCCCCCCC[N+](C)(C)CCCNc1ccc(NCCC[N+](C)(C)CCCCCCCCCCCC)c2c1C(=O)c1ccccc1C2=O [7d, N,N′(((9,10-dioxo-9,10-dihydroanthracene-1,4-diyl)bis(azanediyl))bis(propane-3,1-diyl))bis(N,N-dimethyldodecan-1-aminium) Bromide] | 0.0369 | 0.0304 | 0.1045 | 0.0845 | 0.2440 | 0.1949 | 0.3649 | 0.2895 | 0.8039 | 0.6368 | 1.8155 | 1.4306 | – |
| CCOc1ccc(Nc2ccc(/C(=C3C=C/C(=[N+](/CC)Cc4cccc(S(=O)(=O)[O-])c4)C=C/3C)c3ccc(N(CC)Cc4cccc(S(=O)(=O)[O-])c4)cc3C)cc2)cc1.[Na+] [BBG, Brilliant Blue G, reference compound] | – | – | – | – | – | – | – | – | – | – | – | – | λmax Reference (585 nm) (0.005 mg/mL in PBS pH 7.4): 0.1241; λmax Reference (585 nm) (0.01 mg/mL in PBS pH 7.4): 0.3755; λmax Reference (585 nm) (0.02 mg/mL in PBS pH 7.4): 0.835; λmax Reference (585 nm) (0.04 mg/mL in PBS pH 7.4): 1.6741; λmax Reference (585 nm) (0.08 mg/mL in PBS pH 7.4): 3.2859 |
| CC1(C)C(/C=C/C=C/C=C/C=C2\N(CCCCS(=O)(=O)O)c3ccc4ccccc4c3C2(C)C)=[N+](CCCCS(=O)(=O)[O-])c2ccc3ccccc3c21 [ICG, Indocyanine green, reference compound] | – | – | – | – | – | – | – | – | – | – | – | – | λmax Reference (779 nm) (0.005 mg/mL in double-distilled water): 0.0226; λmax Reference (779 nm) (0.01 mg/mL in double-distilled water): 0.0162; λmax Reference (779 nm) (0.02 mg/mL in double-distilled water): 0.0477; λmax Reference (779 nm) (0.04 mg/mL in double-distilled water): 3.5822; absorption (up to a concentration of 0.02 mg/mL, double-distilled water): virtually no absorption |
